Source: article PMC6005158

Biological target: T1, Danio rerio STING (DrSTING), Myc-tagged (zebrafish (Danio rerio)) (UniProt E7F4N7)
T1 sequence: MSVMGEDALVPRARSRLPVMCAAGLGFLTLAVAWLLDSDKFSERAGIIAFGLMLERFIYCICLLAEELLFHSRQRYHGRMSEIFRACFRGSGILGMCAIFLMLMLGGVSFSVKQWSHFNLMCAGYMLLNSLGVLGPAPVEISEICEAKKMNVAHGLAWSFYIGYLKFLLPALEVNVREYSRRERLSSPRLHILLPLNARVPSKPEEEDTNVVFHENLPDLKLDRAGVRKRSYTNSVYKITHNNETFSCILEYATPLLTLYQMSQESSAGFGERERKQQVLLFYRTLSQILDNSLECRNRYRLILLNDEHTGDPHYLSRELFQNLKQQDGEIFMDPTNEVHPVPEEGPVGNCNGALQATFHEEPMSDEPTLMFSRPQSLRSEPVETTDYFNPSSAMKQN
Test: co-IP; HEK293T co-transfected with Myc-DrSTING and GFP-DrSTAT6 without Flag-DrDDX41 (empty vector); lysates immunoprecipitated with anti-Myc mAb and protein A-agarose, blotted with anti-tag antibodies

binding: binds weakly
Substance: Danio rerio STAT6 (DrSTAT6), GFP-tagged (zebrafish (Danio rerio))

These are yes or no findings as the source states them, for the method shown. In cells and extracts the contact can be indirect. Binding calls can cover weak binding; strength is not graded here. Sequences can lack the tags named with a protein.
